According to paper doi:10.1101/2021.03.09.434627:
Positions count from the first letter of the chain named. In names and notes the source's numbering stands. No constants are given. Whether binding was seen depends on the method and setting. Binding seen in cells or lysates may run through a third protein. Some binding calls cover weakened binding; strength is not graded here. Tags and fused reporters may be left off the sequences shown.

T1: His6-HSCA2^G87D-Myc (Arabidopsis) (UniProt Q9LDZ0)
T1 sequence: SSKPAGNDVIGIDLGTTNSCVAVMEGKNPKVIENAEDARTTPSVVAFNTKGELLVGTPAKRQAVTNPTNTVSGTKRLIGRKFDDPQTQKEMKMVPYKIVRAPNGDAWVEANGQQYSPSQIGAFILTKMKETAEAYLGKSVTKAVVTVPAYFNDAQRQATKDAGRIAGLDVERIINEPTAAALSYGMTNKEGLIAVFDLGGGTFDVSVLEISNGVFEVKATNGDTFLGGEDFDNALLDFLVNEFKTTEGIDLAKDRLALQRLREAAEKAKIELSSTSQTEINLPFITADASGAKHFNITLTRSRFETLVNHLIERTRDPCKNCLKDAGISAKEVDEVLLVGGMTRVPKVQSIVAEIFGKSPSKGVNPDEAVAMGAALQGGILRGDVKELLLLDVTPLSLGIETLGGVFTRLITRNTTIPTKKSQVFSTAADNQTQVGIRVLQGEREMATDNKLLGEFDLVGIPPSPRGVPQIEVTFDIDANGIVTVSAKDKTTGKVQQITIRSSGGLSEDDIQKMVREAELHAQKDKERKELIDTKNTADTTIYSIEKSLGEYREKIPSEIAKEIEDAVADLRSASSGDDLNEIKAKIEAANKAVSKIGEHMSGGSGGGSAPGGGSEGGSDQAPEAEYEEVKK

T2: His6-HSCA2-Myc (Arabidopsis) (UniProt Q9LDZ0)
T2 sequence: T1 sequence with D37G

B1: ISU1-Myc (protein, UniProt O49627 51-167)
chain: PNVGTGLVGAPACGDVMKLQIKVDEKTGQIVDARFKTFGCGSAIASSSVATEWVKGKAMEDVLTIKNTEIAKHLSLPPVKLHCSMLAEDAIKAAVKDYKEKRVKTNGAAAAGETTQA
B2: ISU1^T55MAAA (protein, UniProt O49627 51-167)
chain: B1 chain with T5M, P78A, V79A, K80A
B3: ISU1^T55MP127A (protein, UniProt O49627 51-167)
chain: B1 chain with T5M, P77A
B4: ISU1^T55ML126A (protein, UniProt O49627 51-167)
chain: B1 chain with T5M, L76A
B5: ISU1^T55M-Myc (protein, UniProt O49627 51-167)
chain: B1 chain with T5M
B6: ISU1^T55MP128S (protein, UniProt O49627 51-167)
chain: B1 chain with T5M, P78S

molecular target: T1, His6-HSCA2^G87D-Myc (Arabidopsis); assay: pull-down

Row | binding | Binder
1 | binds | B1

molecular target: T2, His6-HSCA2-Myc (Arabidopsis); assay: pull-down

Row | binding | Binder
2 | binds | B1
3 | binds weakly | B2
4 | binds | B3
5 | binds | B4
6 | binds | B5
7 | binds | B6
